# Out of some 1,100 compounds screened, fewer than 10 were called active. Another 6% or so got no clear call; they are omitted. Calls come from the whole dose curve; as a rule, active = well fitted cell-killing curve with a large enough effect; inconclusive = small, poorly fitted or top-dose-only effect; inactive = flat fitted curve, though single readings scatter. This is one part of the list.
# Assay: qHTS of Nrf2 Activators: Hit Validation in Cytotox Assay;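 note: compound exposure lasted 24 hours before the ATP readout; 0% is about no effect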
# Conditions: Cell viability counter-screen for Nrf2 activator hits; series mostly up to 46.1 µM; activity change, negative = cytotoxicity: at the top concentration
# Summary of the method: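 AREc32_fluc cells plated overnight, then treated at 7 concentrations for 24 h at 37 °C. Viability from intracellular ATP by CellTiter-Glo luminescence after 30 min at room temperature; cytotoxic compounds flagged active.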
row,Compound,"activity change, negative = cytotoxicity"
1,O=C(O)/C=C/C(=O)c1c(-c2ccccc2)[nH]c2ccccc12,inactive: 4.85%
2,O=C(NNC(=O)c1sccc1-n1cccc1)c1cccc(Cl)c1,inactive: 3.63%
3,NC(=O)c1c(NC(=O)c2ccco2)sc2c1CCC2,inactive: 1.87%
4,O=[N+]([O-])c1ccc(NN=Cc2ccco2)nc1,inactive: 10.9%
5,Nc1ccc2c(c1)Cc1c(F)cccc1-2,inactive: 6.2%
6,CCn1c(SCC(=O)N/N=C/C=C\c2ccco2)nc2ccccc21,inactive: 7.4%
7,N/C(=N\OC(=O)c1cc(Cl)ccc1Cl)c1ccncc1,inactive: 5.08%
8,Cc1csc2c(=O)sc(NC(=O)c3cccs3)nc12,inactive: 2.33%
9,Clc1cccc(Cc2c(-c3ccco3)nc3c4ccccc4ccn23)c1,inactive: -6.06%
10,CC1CCN(CC2C(=O)O[C@@H]3C[C@@]4(C)CCC[C@H](C)C4=C[C@H]23)CC(C)(C)C1 (some centres not stated),inactive: 10.7%
11,N#Cc1c(-c2ccco2)cc(-c2ccccc2)[nH]c1=O,inactive: 6.52%
12,CSc1nc2sc3c(c2c(=O)n1C)CCC(C)C3 (configuration not stated),inactive: 9.91%
13,Cc1ccccc1CS(=O)(=O)c1cnc2ccccc2n1,inactive: 5.47%
14,O=C1S/C(=C\C=C\c2ccco2)C(=O)N1c1ccccc1,inactive: -1.34%
15,O=C(Nc1cccc(NC(=O)c2cccc(Cl)c2)c1)c1cccnc1,inactive: 0.671%
16,Cc1cccn2c(=O)c3cc(C#N)c(=O)n(-c4nnc(SCc5ccc(Cl)cc5)s4)c3nc12,inactive: 7.55%
17,Cc1csc2nc(NC(=O)c3ccccc3)sc(=O)c12,inactive: -4.84%
18,CCn1c(=NC(=O)c2ccco2)sc2cccc(F)c21,inactive: -1.54%
19,Cc1nc(Nc2ccccc2F)c2oc3ccccc3c2n1,inactive: 5.5%
20,Cc1nc2nc(-c3ccccc3)nn2c(C)c1Cl,inactive: -0.716%
21,Cn1c(=O)n(CCc2ccccc2)c(=O)c2c1nc1n2CCN1Cc1ccco1,inactive: -3.58%
22,O=C1C(=Cc2cccc(F)c2)Cc2ccccc21,inactive: -20%
23,COc1ccc(Cl)cc1NC(=O)CCS(=O)(=O)c1cccc2nonc12,inactive: 2.97%
24,O=C(CSc1nc2ccccc2s1)N/N=C/c1ccco1,inactive: 1.88%
25,Cn1c(N)c(C(=O)COC(=O)c2nc(Cl)ccc2Cl)c(=O)n(C)c1=O,inactive: -0.715%
26,Cc1ccc(/C=C/C(=O)Nc2ccc([N+](=O)[O-])c(NC(=O)/C=C/c3ccc(C)o3)c2)o1,inactive: -0.336%

# As entered above.
# activity change, negative = cytotoxicity, O=C(NNC(=O)c1sccc1-n1cccc1)c1cccc(Cl)c1 reads inactive: 3.63%
# activity change, negative = cytotoxicity, CCn1c(=NC(=O)c2ccco2)sc2cccc(F)c21 reads inactive: -1.54%
# activity change, negative = cytotoxicity, O=C(O)/C=C/C(=O)c1c(-c2ccccc2)[nH]c2ccccc12 reads inactive: 4.85%

# (further entries)

row,Compound,"activity change, negative = cytotoxicity"
1,Cc1cc(C)c(C#N)c(OCC(=O)c2ccccc2)n1,inactive: 0.241%
2,Cc1nnc2n1N=CC=C(c1ccccc1)S2,inactive: 24.6%
3,Cc1ccc(-c2cc(-c3cccc(F)c3)n[nH]2)c(O)c1,inactive: -26.4%
4,N#Cc1nc(-c2ccc(F)cc2)oc1NCc1ccco1,inactive: 4.54%
5,O=C(Nc1nc2ccccc2[nH]1)c1ccc(Cl)c([N+](=O)[O-])c1,inactive: 1.45%
6,O=C(/C=C/c1ccccc1)Nc1nc(-c2cccs2)ns1,inactive: -17.8%
7,Cc1cc(C)c(C#N)c(OCC(=O)c2ccc(Br)cc2)n1,inactive: -7.99%
8,N#C/C(=C\c1ccccc1)c1ccccn1,inactive: -2.49%
9,O=c1cc(-c2ccccc2)nc2c(Cl)cc(Cl)cn12,inactive: 9.44%
10,Cn1c(=O)c2nc(NCc3ccccc3)sc2n(C)c1=O,inactive: 8.23%
11,COC(=O)c1ccc2nc(-c3cccc(Br)c3)c(CC3CCCCC3)n2c1,inactive: -3.47%
12,N#C/C(=C\C=C\c1ccccc1)C(=O)NCc1cccnc1,inactive: -5.37%
13,COC(=O)c1ccc2nc(-c3ccco3)c(Cc3ccccc3)n2c1,inactive: 0.341%
14,O=C(Nc1nccs1)c1cc(-c2ccco2)nc2ccccc12,inactive: 7.68%
15,Clc1nc(NCc2ccco2)nc(N2CCCCC2)n1,inactive: -0.83%
16,O=[N+]([O-])c1cccc(-c2nc(-c3ccccn3)no2)c1,inactive: -5.21%
17,O=C1NC(=Nc2ccccc2)S/C1=C\c1ccccc1,inactive: 5.24%
18,COc1ccc(OC)c(/C=C2\SC(=S)N(Cc3cccnc3)C2=O)c1,inactive: 6.18%
19,O=C1Nc2cccnc2N(C(=O)CCl)c2ccccc21,inactive: 27.6%
20,O=C(/C=C/c1ccco1)Nc1ccc(-c2nc3ccccc3[nH]2)cc1,inactive: 9.84%
21,O=C(Nc1ncnc2sc3c(c12)CCC3)c1ccco1,inactive: -0.512%
22,Cc1noc(C)c1COc1ccccc1C(=O)NNC(=O)c1ccccc1F,inactive: 3.08%
23,O=C(Nc1ccc(Br)c(Cl)c1)c1ccco1,inactive: -0.339%
24,O=[N+]([O-])c1ccc(/C=C/c2ccc3cccc([N+](=O)[O-])c3n2)cc1,inactive: -16.5%
25,COc1ccc([N+](=O)[O-])cc1NC(=O)c1ccco1,inactive: 6.58%
26,O=c1oc2ccc(Cl)cc2nc1/C=C(\O)c1cccs1,inactive: -4.12%

row,Compound,"activity change, negative = cytotoxicity"
1,O=[N+]([O-])c1cccc(-c2cn(-c3ccccc3)c(=S)[nH]2)c1,inactive: 2.98%
2,COC(=O)c1cc2c(s1)-c1cc(F)ccc1OC2,inactive: 7.69%
3,CSc1ccccc1NC(=O)c1cc(-c2cccs2)on1,inactive: -1.28%
4,CS(=O)(=O)Cc1nc2ccccc2oc1=O,inactive: 6.42%
5,O=C(c1nn2c(C(F)(F)F)cc(-c3ccco3)nc2c1Br)N1CCCc2ccccc21,inactive: -15%
6,O=C(Nc1ncnc2sc3c(c12)CCCCC3)c1ccco1,inactive: 7.98%
7,Cn1c(NCC2CCCCC2)nc2cc(-c3ccsc3)sc2c1=O,inactive: 2.56%
8,FC(F)(F)c1cc(-c2ccco2)nc(-n2nnc3ccccc32)n1,inactive: -9.04%
9,O=C(Nc1ccccc1O)c1cccc(NC(=O)c2ccco2)c1,inactive: 8.6%
10,COc1ccc(Cl)cc1C(=O)O/N=C(\N)c1ccncc1,inactive: 1.39%
11,O=C(CCNc1cc(Cl)cc(Cl)c1)c1cccs1,inactive: -3.32%
12,Cc1ccc2cc3c(NC(=O)c4ccco4)nn(C)c3nc2c1,inactive: 4.44%
13,COc1cc(/C=C/c2ccc3cccc(O)c3n2)cc(OC)c1OC,inactive: -18.9%
14,S=c1[nH]nc(-c2ccco2)n1/N=C/c1ccccc1,inactive: 5.36%
15,COc1ccc(C(=O)NCC(=O)N/N=C/C(C)=C/c2ccco2)cc1OC,inactive: 4.64%
16,CC(=O)Nc1nc2cccc([N+](=O)[O-])c2s1,inactive: 0.137%
17,c1cncc(-c2noc(-c3cccc4ccccc34)n2)c1,inactive: -0.825%
18,O=C(Nc1cccc([N+](=O)[O-])c1)c1[nH]ncc1Cl,inactive: -11.2%
19,O=c1[nH]n(Cc2ccccc2)c(=O)c2ccccc12,inactive: 4.35%
20,C/C(=N\Nc1ccccn1)c1cccs1,inactive: 5.06%
21,C/C(=N\NC(=O)c1c[nH]c2ccccc12)c1ccco1,inactive: 3.92%
22,O=C1N/C(=N\N=C\c2ccco2)SC1Cc1ccc(F)cc1 (configuration not stated),inactive: -10.6%
23,Cc1cccc2nc3c(nc12)-c1ccccc1C3=O,inactive: -6.85%
24,COc1ccc(OC)c(NC(=O)C(C#N)=Cc2ccco2)c1,inactive: 2.46%
25,O=C(NCc1ccco1)c1cccnc1-c1nc2ccccc2s1,inactive: -4.16%

# Source: PubChem BioAssay AID651595 (National Center for Advancing Translational Sciences (NCATS), 2012)
